Experimental data: patent US10195204B2, “Methods of treating hemoglobinopathies” (DUKE UNIVERSITY, priority 2011, dated 2019)
For at least one compound, name, drawing or mass did not settle the structure.

Tests used:
[1] = test system: ERK1/2 phosphorylation in SS RBCs; assay: ERK1/2 phosphorylation in SS RBCs, Western blot (phosphoERK normalized to total ERK); format: cell-based, human; details: SS RBCs treated with forskolin
Method: Aliquots of packed RBCs were treated with various reagents to affect cAMP signaling or protein phosphorylation. […] Treated RBCs were then washed 5 times with 4 ml PBS with Ca^2+ and Mg^2+. Normal RBCs were used as controls. Prior to adhesion assays, treated RBCs were labeled with PKH 26 red fluorescent cell linker kit (Sigma), following the manufacturer's instructions.
Treated packed RBCs were lysed with hypotonic buffer (5 mM Na2HPO4+1 mM EDTA+0.1% NaN3, pH 8) containing 2 mM phenylmethylsulphonylfluoride (PMSF, Sigma), phosphatase inhibitor cocktail (Sigma) and protease inhibitor cocktail (Sigma). Protein separation by polyacrylamide gel electrophoresis using equal amounts of total RBC membrane ghost proteins per lane, after correcting total protein measurements for residual hemoglobin content, and Western blot^19 using the appropriate Ab were then performed. Mouse 3T3/A31 fibroblast lysate was used as a ERK1/2 positive control for immunoblots. For total ERK1/2, membranes blotted with anti-phosphoERK Ab were stripped and reexposed to Western blotting using anti-ERK1/2 Ab. Bands were analyzed densitometrically using ImageJ software downloaded from the NIH website. PhosphoERK1/2 data were normalized according to total ERK1/2 and are presented as fold change in ERK phosphorylation.

[2] = test system: SS RBC adhesion to HUVECs; assay: Flow chamber adhesion of SS RBCs to non-activated HUVECs; format: cell-based, human; details: shear stress 2 dynes/cm^2, intermittent flow
Method: Cells were then washed three times with 5 ml PBS with Ca^2+ and Mg^2+. Prior to adhesion assays, washed treated SS RBCs were labeled with PKH 26 red fluorescent cell linker kit (Sigma-Aldrich, St. Louis, Mo.), following the manufacturer's instructions. […] The flow chamber was mounted on the stage of an inverted phase contrast microscope (Diaphot, Nikon Inc., Melville, N.Y.) connected to a thermoplate (Tokai Hit Co., Ltd., Japan) set at 37° C. […] Before exposure to flow, a minimum of three fields at each of seven different locations along a line oriented normal to future flow were examined for the total number of fluorescent cells. Fluid flow (HBSS with Ca^2+, Mg^2+) was then started using a calibrated syringe pump. After exposure to flow, the fields were again examined and the number of adherent cells counted. The fraction of adherent cells was presented as (number of cells attached after exposure to flow)/(cells present per field before flow). The wall shear stress was calculated as: [formula] τw=wall shear stress (dyne/cm^2); Q=volumetric flow rate (cm^3/s); μ is media viscosity, w is the width of the flow channel, and H(x) is the height of the flow chamber as a function of position along the microscope slide. Several investigators have shown that blood flow in small vessels may be continuous, with shear stresses of 1-2 dynes/cm^2, or flow may be intermittent. […]

C=C[C@@]1(C)CC(=O)[C@]2(O)[C@@]3(C)[C@@H](O)CCC(C)(C)[C@@H]3[C@H](O)[C@H](OC(C)=O)[C@@]2(C)O1 [forskolin]
effect on ERK1/2 phosphorylation [1]: promoted increased ERK1/2 phosphorylation
effect on SS RBC adhesion to HUVECs [2]: enhanced
